Assay: general procedure: Fmoc solid-phase peptide synthesis; 2-chlorotrityl resin (100-200 mesh, 1% DVB); Fmoc-MeAsp(O-Trt(2-Cl)resin)-pip or Fmoc-D-3-Abu-O-Trt(2-Cl)resin; DIC/HOBt, DIC/HOAt or HATU/DIPEA (general description); cyclisation with HATU or
Conditions: whole synthesis

Question: What does the source list for “(3S,9S,12S,18S,27S,30R,35S)-18-(cyclohexylmethyl)-12-[(3-ethynylphenyl)methyl]-3-isobutyl-9-[(4-methoxyphenyl)methyl]-1,6,6,7,16,19,22,25,30,32-decamethyl-27-[(1S)-1-methylpropyl]-35-(piperidine-1-carbonyl)-1,4,7,10,13,16,19,22,25,28,32-undecaz”?
Answer: isolated mass: 14.72 mg; isolated yield (scale of the general procedure 0.0462 mmol (100 mg resin, 0.462 mmol/g)): 26%

From patent publication US20240239842A1 (CHUGAI SEIYAKU KABUSHIKI KAISHA, priority 2021, published 2024)
